Assay results from publication PMC8642396, “Crystal structure of human METTL6, the m^3C methyltransferase” (Communications Biology, 2021).
These are yes or no findings as the source states them, for the method shown.

Biological target: human METTL6 (human) (UniProt Q8TCB7)
Assay: SEC; Superdex 200 10/300 column; 20 mM Tris-HCl pH 8.0, 150 mM NaCl, 1 mM DTT; calibrated with marker proteins; elutes at 15.8 ml, ~34.6 kDa apparent against ~35.7 kDa calculated; both purified

B1: human METTL6 (enzyme, UniProt Q8TCB7-1 1-284)
chain: MASLQRKGLQARILTSEEEEKLKRDQTLVSDFKQQKLEQEAQKNWDLFYKRNSTNFFKDRHWTTREFEELRSCREFEDQKLTMLEAGCGVGNCLFPLLEEDPNIFAYACDFSPRAIEYVKQNPLYDTERCKVFQCDLTKDDLLDHVPPESVDVVMLIFVLSAVHPDKMHLVLQNIYKVLKPGKSVLFRDYGLYDHAMLRFKASSKLGENFYVRQDGTRSYFFTDDFLAQLFMDTGYEEVVNEYVFRETVNKKEGLCVPRVFLQSKFLKPPKNPSPVVLGLDPKS
For B1, the binding was “no binding”.
